From US20240288345A1, “FLUORESCENT STAINING METHOD” (OSAKA UNIVERSITY, priority 2022, published 2024)
At least one compound was matched to its structure with a doubt left.

How the values were obtained:
[1] = test system: human colonic mucosal tissue; assay: Clearing and whole-mount 3D fluorescent staining of human colonic mucosal tissue (Test Example B); details: CUBIC clearing, periodic acid, 50 μM, 2-3 days, excitation 488 nm
Description: CUBIC-L and CUBIC-R+reagents (T3740 and T3741, Tokyo Chemical Industry Co., Ltd.) were used in tissue clearing. Atissue removal procedure is simply described below.
A formaldehyde-fixed tissue specimen was washed with PBS, and was subsequently immersed in a 50% (v/v) CUBIC-L reagent (mixture containing water and the CUBIC-L reagent at 1:1) overnight. Further, the specimen was immersed in the CUBIC-L reagent at 37° C. for 5 days or 6 days while being gently shaken. Next, each of those specimens was washed with PBS, was immersed in 30% (w/v) of sucrose in the PBS, and was frozen in O.C.T. COMPOUND at −80° C. overnight. […] A cleared tissue specimen thus obtained was subjected to 3D imaging with a confocal fluorescence microscope or a light-sheet fluorescence microscope. A wavelength of 488 nm was applied as the excitation wavelength of each of FAM hydrazide, Compound 1, Alexa Fluor 488 hydrazide, BDP FL hydrazide, and fluorescein, and the fluorescence detection wavelength range of each of these materials was from 490 nm to 562 nm.
A 3D image was obtained by using a confocal microscope (Zeiss LSM880 Confocal/Multiphoton, Carl Zeiss AG) or a light-sheet fluorescence microscope (Zeiss Lightsheet 7, Carl Zeiss AG), All pieces of raw image data were reconstructed and analyzed with Imaris software (version 9.2.1, Bitplane Inc.). […]

[2] = test system: goblet cell mucus of human colorectal mucosal tissue; assay: Fluorescent staining of frozen sliced specimen of human colonic mucosa (Test Example A); details: 10 μm frozen section, 0.5% periodic acid pretreatment, 50 μM overnight
Description: A tissue to be stained was washed with phosphate buffered saline (PBS), was immersed in 30% (w/v) of sucrose in the PBS, and was frozen in O.C.T. COMPOUND (45833, Sakura Finetek) at −80° ° C. overnight. The frozen tissue was cut into a thickness of 10 μm with a cryostat (CM3050 S, Leica Biosystems). The resultant frozen section was washed with PBS three times, and was subjected to pretreatment with a 0.5% solution of periodic acid (HIOA) (86171, MUTO PURE CHEMICALS CO., LTD.) at room temperature for 30 minutes. The section was washed with PBS three times, and was incubated in FAM hydrazide, 5-isomer((50 µM, 24170, BroadPharm, in this description, sometimes referred to as “FAM hydrazide”), Alexa Fluor 488 hydrazide (50 μM, A10436, ThermoFisher Scientific, Inc.), BDP FL hydrazide (50 μM, 11470, Lumiprobe Corporation), or fluorescein (50 µM, FUJIFILM Wako Pure Chemical Corporation) diluted with PBS at room temperature overnight. After that, the section was washed with PBS and an image thereof was obtained with a confocal microscope.
A section of a human colorectal mucosal tissue sampled from the non-tumor region of a surgical specimen of colorectal cancer was subjected to fluorescent staining through use of FAM hydrazide, Alexa Fluor 488 hydrazide, BDP FL hydrazide, or fluorescein serving as a fluorescent skeleton as a stain.

## O=C1OC2(c3ccc(O)cc3Oc3cc(O)ccc32)c2ccccc21 [fluorescein]
[1]
  3D imaging signal of cleared tissue: no fluorescence was observed
[2]
  Fluorescent staining signal in goblet cell mucus, sliced section: no fluorescence was observed
